Reference: PubChem BioAssay AID1347076 (National Center for Advancing Translational Sciences (NCATS), 2019)
In all, about 400,000 compounds went through this assay and about 13,000 (3.2%) were called active. Inconclusive results, whose numbers are uncertain, are shown with a selection of clear calls. Calls follow the shape of the dose curve; as a rule, active = well fitted cell-killing curve with a large enough effect; inconclusive = small, poorly fitted or top-dose-only effect, or effect the other way; inactive = flat fitted curve, though single readings scatter. Where the call is inconclusive, the potency comes from a doubtful curve fit.

Test: qHTS assay for MDR1-selective chemotherapeutics: Primary screen using the drug-selected MDR subline cells KB-V1; also: nearly all actives have a fitted effect of over 60% in size
Settings: KB-V1 MDR cells viability, CellTiter-Glo, 72 h; series mostly up to 46.1 µM
Summary of the method: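 Luminescent ATP read-out (CellTiter-Glo, 10 min) measures survival of drug-selected KB-V1 MDR cells after 72 h, 37 degrees C compound exposure. Medium: phenol-red-free DMEM, 10% FBS. Values from fitted concentration-response curves.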
Potency is read from the fitted curve at half-maximal effect.

Compound | Potency
COc1ccc(S(=O)(=O)NCc2cccn2Cc2cccc(C)c2)cc1Cl | inconclusive: 10.3 µM [cytotoxic, partial curve]
COc1ccc(C=CC(=O)c2cc(O)ccc2O)cc1 | inactive
CC(C)(C)c1cc(C(=O)N/N=C/c2ccc([N+](=O)[O-])s2)n[nH]1 | inconclusive: 20.6 µM [cytotoxic, single point]
COc1ccccc1NC(=O)c1cc2c(CO)cnc(C)c2oc1=Nc1cccc(C(N)=O)c1 | inactive
Cc1ccc(NC(=O)Cn2c(=O)cnc3ccccc32)cc1S(=O)(=O)N(C)C | inconclusive: 20.6 µM [cytotoxic, partial curve, poor fit]
CC1CCc2c(C(=O)Nc3ccc(N4CCOCC4)cc3)csc2C1 (configuration not stated) | inconclusive: 20.6 µM [cytotoxic, single point]
COc1ccc(-c2cc(C(F)(F)F)nc(SCC(=O)N3CCCCC3)n2)cc1OC | inconclusive: 29.1 µM [cytotoxic, single point]
CCOC(=O)c1ccccc1NC(=O)CSc1nc2ccccc2n1CC(=O)N1CCCC1 | inconclusive: 9.2 µM [cytotoxic, partial curve, poor fit]
COC(=O)c1ccc(COc2ccccc2/C=C(\C#N)C(=O)Nc2c(C)cccc2C)cc1 | inconclusive: 29.1 µM [cytotoxic, single point]
CCOC(=O)C1=C(COC(=O)C2(C)CC2(Cl)Cl)NC(=O)NC1c1ccc(OC)cc1 (configuration not stated) | inconclusive: 10.3 µM [cytotoxic, partial curve]
c1ccc2c(c1)[nH]c1c(N3CCOCC3)ncnc12 | inconclusive: 29.1 µM [cytotoxic, single point]
CC(C)(C)OC(=O)N1CCC(C(=O)Nc2ccc(C(=O)NCc3ccccc3)cc2)CC1 | inactive
CC(=O)Nc1ccc(C=CC=Cc2cccc([N+](=O)[O-])c2)cc1 | active: 20.6 µM
NC(=Nc1nc(-c2ccccn2)cc2ccccc12)c1ccccn1 | active: 0.731 µM
COc1cc(OC)c(NC(=O)Cn2c(=O)c(C(F)(F)F)nc3ccccc32)cc1Cl | inactive
CCc1cccc(NC(=O)Cn2c(=O)n(-c3ccccc3C)c(=O)c3c2c2cc(C)ccc2n3C)c1 | inactive
CN1CCN(C(=O)C2CC(=O)N(c3ccc(F)c(Cl)c3)C2)CC1 (configuration not stated) | inactive
Cc1ccc(Cl)cc1-n1c(CCC(=O)O)ccc1-c1cccs1 | inconclusive: 29.1 µM [rising, single point]
CCc1nnc(NC(=O)c2ccc(S(=O)(=O)N3CCCc4ccccc43)cc2)o1 | inconclusive: 18.4 µM [cytotoxic, partial curve, poor fit]
COC(=O)C1=C(C)NC(C)=C(C(=O)OC)C1c1ccc(N(C)C)cc1 | inconclusive: 18.4 µM [cytotoxic, partial curve]
Cc1sc2ncnc(N3CCC(C(=O)Nc4nnc(SCc5ccccc5F)s4)CC3)c2c1C | inconclusive: 11.6 µM [cytotoxic, partial curve]
Cc1ccc(C(=O)N/C(=C\c2cccs2)C(=O)NCCc2ccccn2)cc1C | inconclusive: 29.1 µM [cytotoxic, single point]
Cc1ccc(S(=O)(=O)NCc2ccccc2)cc1C(=O)N1CCCCCCC1 | active: 9.2 µM

Compound | Potency
Cc1cc(NC(=O)c2c(Cl)cccc2Cl)no1 | inactive
CC(C)CC1(C)NC(=O)N(Cc2cc([N+](=O)[O-])cc3c2OCOC3)C1=O (configuration not stated) | inconclusive: 25.9 µM [cytotoxic, single point]
COC(=O)c1ccc(CSc2nc3c([nH]c4ccccc43)c(=O)n2-c2ccc(F)cc2)o1 | inactive
CC(=O)OCC(=O)Nc1ccc(SC(F)F)cc1 | inactive
O=S(=O)(c1ccc(Cl)cc1)n1ccc(-c2cccc(OCc3c(F)cccc3Cl)c2)n1 | inactive
Cc1ccc(CNC(=O)c2ccc(CS(=O)(=O)Cc3ccc(F)cc3)o2)cc1 | inactive
CCCCc1nn2c(=O)cc(COC(=O)c3cccc(NC(=O)c4cccc(Cl)c4)c3)nc2s1 | inconclusive: 29.1 µM [rising, single point]
CCOC(=O)CC(NC(=O)c1ccccc1F)c1ccc(C)cc1 (configuration not stated) | inconclusive: 6.51 µM [cytotoxic, partial curve, poor fit]
COC(=O)c1c[nH]n2c(=O)c(Cc3ccc(F)cc3Cl)c(C)nc12 | active: 16.4 µM
Cc1ncc([N+](=O)[O-])n1CC(=O)N/N=C/c1ccc(F)cc1 | inconclusive: 16.4 µM [rising, single point]
COC(=O)[C@@]1(Cc2ccc(OC)cc2)[C@H]2c3cc(C(=O)N4CCCC4)n(Cc4c(CO)[nH]cc(C)c4=O)c3C[C@H]2CN1C(=O)c1ccccc1 | inconclusive: 29.1 µM [rising, single point]
COc1ccc(Cl)cc1C(=O)Nc1ccc(N(C)C(C)=O)cc1 | active: 16.4 µM
Cc1c(CCOC(=O)c2ccc(N3CCOCC3)c([N+](=O)[O-])c2)sc[n+]1CC#N | inconclusive: 29.1 µM [cytotoxic, partial curve, poor fit]
COc1cc(OC)cc(C(=O)NCC(=O)N2CC=C(c3ccccc3)CC2)c1 | active: 7.31 µM
Cn1nnnc1SCC(=O)Nc1ccc(C(=O)N2CCN(Cc3ccccc3F)CC2)cc1 | inconclusive: 29.1 µM [rising, single point]
CCC(=O)Nc1ccc(C(=O)N/N=C/c2ccccc2[N+](=O)[O-])cc1 | inconclusive: 35.5 µM [cytotoxic, single point]
O=C(NC1CCN(C(=S)NCCc2ccccc2)CC1)C1CC1 | inconclusive: 18.4 µM [cytotoxic, partial curve, poor fit]
CCCCn1c(O)c(/C=C2\C=NN=C2c2ccccc2)sc1=S | inactive
Cc1cccc(N2CCN(S(=O)(=O)c3cn(C)c(C)n3)CC2)c1C | inconclusive: 20.6 µM [rising, partial curve, poor fit]
CCOC(=O)C1=C(C)NC(C)=C(C(=O)OCC)C1C(=O)OCC(=O)NC1(C#N)CCCCC1 | inconclusive: 29.1 µM [cytotoxic, single point]
O=C(NCc1ccccc1)C(=O)Nc1cccc(C(=O)O)c1 | inconclusive: 7.31 µM [rising, partial curve]
CCN(CC)C(=O)C1=C(C)NC(=S)NC1c1cccs1 (configuration not stated) | inconclusive: 29.1 µM [rising, single point]
COc1ccc2c(c1)[C@H]1[C@H](CO2)[C@H](c2ccccc2)[C@]2(C)C(=O)Nc3cc(F)c(F)cc3C(=O)N12 | inconclusive: 32.6 µM [cytotoxic, single point]

Nothing new here: an excerpt of the list.
Compound | Potency
COC(=O)c1ccc(CSc2nc3c([nH]c4ccccc43)c(=O)n2-c2ccc(F)cc2)o1 | inactive
CC(=O)OCC(=O)Nc1ccc(SC(F)F)cc1 | inactive
O=S(=O)(c1ccc(Cl)cc1)n1ccc(-c2cccc(OCc3c(F)cccc3Cl)c2)n1 | inactive
Cc1ccc(CNC(=O)c2ccc(CS(=O)(=O)Cc3ccc(F)cc3)o2)cc1 | inactive
CCCCc1nn2c(=O)cc(COC(=O)c3cccc(NC(=O)c4cccc(Cl)c4)c3)nc2s1 | inconclusive: 29.1 µM [rising, single point]

Remaining list, next part.

Compound | Potency
CCOCCc1nnc(NC(=O)C(=O)c2cc(C)n(-c3cccc(C)c3)c2C)s1 | inactive
COc1ccc(N2CCN(C(c3cc4ccc(C)cc4[nH]c3=O)c3nnnn3C3CCCC3)CC2)cc1 (configuration not stated) | inconclusive: 2.06 µM [cytotoxic, partial curve]
CCOC(=O)N/N=C/c1cn(Cc2ccc(F)cc2)c2ccccc12 | inconclusive: 6.51 µM [cytotoxic, full curve]
Cc1cc(C)nc(N/N=C/c2c(C)oc3ccccc23)n1 | inconclusive: 29.1 µM [rising, single point]
CCCN(CCC)CCCNC(=O)CC1Nc2ccccc2NC1=O (configuration not stated) | inconclusive: 29.1 µM [rising, single point]
Cc1cc2oc(=O)cc(CN3CCN(S(=O)(=O)/C=C/c4ccccc4)CC3)c2cc1C | active: 2.59 µM
Cc1cc(CNC(=O)c2ccc(C)c([N+](=O)[O-])c2)c2ccccc2n1 | inconclusive: 4.61 µM [cytotoxic, partial curve]
Cc1ccc(-n2nc(C(=O)N3CCN(c4ccc(F)cc4)CC3)c(=O)n(C)c2=O)cc1 | inactive
O=C(Nc1ccccc1)C1=C[C@@H](c2coc3ccccc3c2=O)C[C@@H](OCc2ccc(CO)cc2)O1 | inactive
COc1cc(SC)ccc1C(=O)NNC(=O)c1cc(C)oc1C | inconclusive: 16.4 µM [cytotoxic, single point]
CC1(C)CC2CC(C)(CN2S(=O)(=O)c2ccc(C(=O)Nc3cc(S(=O)(=O)N4CCOCC4)ccc3Cl)cc2)C1 (configuration not stated) | inconclusive: 1.46 µM [cytotoxic, full curve]
CCOC(=O)N/N=C\c1cccc(OC)c1OC/C=C/c1ccccc1 | inconclusive: 10.3 µM [cytotoxic, partial curve]
CC1Cc2ccccc2C(=O)N1 (configuration not stated) | inconclusive: 29.1 µM [rising, single point]
COC(=O)C(NC(=O)CCC(=O)N[C@@H](C(=O)OC)c1ccccc1)c1ccccc1 (some centres not stated) | inconclusive: 13 µM [rising, partial curve]
O=C(CCNc1ccc(Cl)cc1)c1cccs1 | inactive
CCOc1c(Nc2ccccc2O)c(=O)c1=O | inactive
C=CC[C@@H]1Cc2c(Br)ccc(Br)c2[C@@H](CC=C)N1 | inconclusive: 13 µM [cytotoxic, partial curve]
CCCCN(C(=O)c1ccccc1Cl)C(CC(C)C)c1nc2ccccc2[nH]1 (configuration not stated) | inactive
Cc1ccnc(NS(=O)(=O)c2ccc(NC(=O)CCOc3ccccc3)cc2)n1 | inconclusive: 14.6 µM [rising, single point]
CSc1nn2cc(CCN3CCOCC3)c(-c3ccc(F)cc3)nc2c1C#N | inconclusive: 0.461 µM [cytotoxic, full curve]
COc1ccc(OC2C(=O)N(c3cc(C)ccc3C)C2c2ccc(OC)c(OC)c2)cc1 (configuration not stated) | inconclusive: 9.2 µM [cytotoxic, partial curve]
